7 sequences from publication PMC8384837 can be followed below.

Holding throughout (settings): yeast three-hybrid, YBZ-1, SC-Leu-His + 0.5 mM 3-AT, 4 days
Assay [1] addresses T1, PUM1 PUF domain R1-QFR R2-VFQ R7-NPG S863Q + R864F + Q867R + N899V + Y900F + S1079N + N1080P + E1083G (UniProt Q14671).
T1 sequence: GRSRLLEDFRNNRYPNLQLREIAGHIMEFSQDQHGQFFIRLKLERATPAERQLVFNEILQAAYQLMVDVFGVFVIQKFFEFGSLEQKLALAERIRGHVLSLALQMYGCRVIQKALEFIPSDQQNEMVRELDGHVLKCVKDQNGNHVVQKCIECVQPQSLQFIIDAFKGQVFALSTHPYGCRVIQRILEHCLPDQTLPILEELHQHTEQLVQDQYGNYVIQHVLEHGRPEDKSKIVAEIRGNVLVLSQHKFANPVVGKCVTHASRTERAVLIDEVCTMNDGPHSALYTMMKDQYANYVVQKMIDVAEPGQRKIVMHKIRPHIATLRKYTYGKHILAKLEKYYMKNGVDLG

Assay [2] deals with T2, PUM1 PUF domain R6-SWD R7-NPG N1043S + Y1044W + Q1047D + S1079N + N1080P + E1083G (UniProt Q14671).
T2 sequence: T1 sequence with Q36S, F37R, R40Q, V72N, F73Y, N216S, Y217W, Q220D

Assay [3] addresses T3, PUM1 PUF domain R2-VFQ R3-THE R4-TFR N899V + Y900F + C935T + R936H + Q939E + N971T + H972F + Q975R (UniProt Q14671).
T3 sequence: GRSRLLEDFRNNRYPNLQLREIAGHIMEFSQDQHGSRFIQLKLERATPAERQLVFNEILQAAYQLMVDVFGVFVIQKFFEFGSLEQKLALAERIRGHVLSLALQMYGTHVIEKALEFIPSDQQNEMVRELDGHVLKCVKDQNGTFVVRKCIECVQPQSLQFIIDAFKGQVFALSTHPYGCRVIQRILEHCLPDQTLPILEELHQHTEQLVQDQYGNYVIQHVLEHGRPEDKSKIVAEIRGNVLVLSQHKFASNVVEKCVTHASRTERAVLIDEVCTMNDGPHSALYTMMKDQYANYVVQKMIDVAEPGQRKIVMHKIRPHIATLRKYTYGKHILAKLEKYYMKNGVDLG

In assay [4] the target is T4, PUM1 PUF domain R5-PHQ R6-SWD C1007P + R1008H + N1043S + Y1044W + Q1047D (UniProt Q14671).
T4 sequence: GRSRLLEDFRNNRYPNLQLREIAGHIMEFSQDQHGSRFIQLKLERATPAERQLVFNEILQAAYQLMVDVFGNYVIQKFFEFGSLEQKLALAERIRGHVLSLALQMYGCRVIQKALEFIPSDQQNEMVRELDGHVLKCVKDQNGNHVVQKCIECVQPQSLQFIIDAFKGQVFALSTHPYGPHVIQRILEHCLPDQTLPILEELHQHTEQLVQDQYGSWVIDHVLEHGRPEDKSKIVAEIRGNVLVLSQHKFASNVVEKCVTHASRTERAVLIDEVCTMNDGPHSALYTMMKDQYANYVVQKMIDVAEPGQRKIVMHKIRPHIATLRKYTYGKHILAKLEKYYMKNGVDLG

In assay [5] the target is T5, PUM1 PUF domain R6-SWD R7-NPG N1043S + Y1044W + Q1047D + S1079N + N1080P + E1083G (Homo sapiens) (UniProt Q14671).
T5 sequence: T4 sequence with P180C, H181R, S252N, N253P, E256G

Residue numbers refer to the chain shown, from its start. The list shows a part of the results. For some assays here: At the low end of the ranking the order means little. For some assays here: The source does not settle which construct or isoform was used. Where only a bound is given, the exact number is not on record here.

With “GGCUAGAACUAGUGGAUCCCCCGGCGCCCGGCGGCUCGAGCCCGGGUAAGUUGCCGCAGUCUGCAUGCCGCCGGGCGCCAUGCCUGCAGGUCGACUCUAGAAAACAUG”, the results for the binding signal (log2 enrichment (interaction score)) in assay [1] and in assay [2] were -5.19 and -2.3, respectively.
“GGCUAGAACUAGUGGAUCCCCCGGCGCCCGGCGGCUCGAGCCCGGGUAAGUUAACUUCGUCUGCAUGCCGCCGGGCGCCAUGCCUGCAGGUCGACUCUAGAAAACAUG”: the binding signal (log2 enrichment (interaction score)) in assay [3] is -5.26.
As to “GGCUAGAACUAGUGGAUCCCCCGGCGCCCGGCGGCUCGAGCCCGGGUAAGUUCAUAGCGUCUGCAUGCCGCCGGGCGCCAUGCCUGCAGGUCGACUCUAGAAAACAUG”, in assay [3], the binding signal (log2 enrichment (interaction score)) is -5.65.
For “GGCUAGAACUAGUGGAUCCCCCGGCGCCCGGCGGCUCGAGCCCGGGUAAGUUGAACUGGUCUGCAUGCCGCCGGGCGCCAUGCCUGCAGGUCGACUCUAGAAAACAUG”, the binding signal (log2 enrichment (interaction score)) in assay [1] was -3.93; in assay [4] it was less than -7.63; in assay [2], -2.01.
As to “GGCUAGAACUAGUGGAUCCCCCGGCGCCCGGCGGCUCGAGCCCGGGUAAGUGAAACACGUCUGCAUGCCGCCGGGCGCCAUGCCUGCAGGUCGACUCUAGAAAACAUG”, the binding signal (log2 enrichment (interaction score)) in assay [3] is less than -6.46.
Consider “GGCUAGAACUAGUGGAUCCCCCGGCGCCCGGCGGCUCGAGCCCGGGUAAGGUGAGGUUGUCUGCAUGCCGCCGGGCGCCAUGCCUGCAGGUCGACUCUAGAAAACAUG”, for which the binding signal (log2 enrichment (interaction score)) in assay [3] was -5.87.
“GGCUAGAACUAGUGGAUCCCCCGGCGCCCGGCGGCUCGAGCCCGGGUAAGCUUUAGACGUCUGCAUGCCGCCGGGCGCCAUGCCUGCAGGUCGACUCUAGAAAACAUG”: the binding signal (log2 enrichment (interaction score)) in assay [1] is -6.01; in assay [5], -1.58.
